{
  "source": "ChEMBL document CHEMBL3351435",
  "about": "“New pyrrole derivatives with potent tubulin polymerization inhibiting activity as anticancer agents including hedgehog-dependent cancer” (J Med Chem, 2014)",
  "key": {"[1]": {"test": "Cytotoxicity against human MESSA cells assessed as growth inhibition after 72 hrs by CellTitre-Glo assay", "format": "functional, cell-based", "conditions": "MES-SA"}, "[2]": {"test": "Cytotoxicity against human MESSA/DX5 cells assessed as growth inhibition after 72 hrs by CellTitre-Glo assay", "format": "functional, cell-based", "conditions": "MES-SA/Dx5, 72 h"}},
  "data": [
    {"molecule": "COc1cc2c(c(OC)c1OC)-c1ccc(OC)c(=O)cc1[C@@H](NC(C)=O)CC2", "note": "[COLCHICINE]", "values": [
      {"measurement": "IC50", "setting": "[1]", "value": 11, "unit": "nM"},
      {"measurement": "IC50", "setting": "[2]", "value": 329, "unit": "nM"}
    ]}
  ]
}
